Structures can show the parent of a compound that is named as a salt. Where a SMILES comes first, the peptide text is derived from it. [ ]: non-standard residue; d: D form. ξ: configuration not given here. ξV = CC(C)C(N)C(=O)O
System: OATP1B2
Experiment: Untargeted metabolomics of plasma and DRG, WT vs OATP1B2-deficient mice
Type: in vivo, mouse
[1] = untargeted metabolomics, WT vs OATP1B2-deficient mice, supplement sheet "Figure 5B" (volcano plot)
[2] = untargeted metabolomics, sheet "Figure 5C", WT vs OATP1B2-deficient mice
[3] = untargeted metabolomics, WT vs OATP1B2-deficient mice, supplement sheet "Figure 5B"
[4] = Figure 5B source data (volcano plot), untargeted metabolomics, WT vs OATP1B2-deficient mice, log2 fold change of metabolite level

`CCCCC/C=C\C/C=C\CCCCCCCC(=O)OC[C@H](COP(=O)([O-])OCC[N+](C)(C)C)OC(=O)CCCCCCC/C=C\C/C=C\CCCCC` [1,2-dilinoleoyl-GPC (18:2/18:2)] was tested, and the Log2FoldChange [1] was 0.3785 and the Log2FoldChange [2] was -0.08927.

In the case of `CCCCC(=O)O` [valerate (5:0)], the Log2FoldChange [1] is reported as 0.3219 and the Log2FoldChange [2] is reported as 0.05658.

`CC(C)CCC(=O)OC(CC(=O)[O-])C[N+](C)(C)C` (centres unmarked) [isocaproylcarnitine] was tested, and the Log2FoldChange [1] was 0.516.

With `CC/C=C\C/C=C\C/C=C\C/C=C\C/C=C\CCCC(=O)O` [eicosapentaenoate (EPA; 20:5n3)] the Log2FoldChange [3] was -0.1361.

For `OC[C@H]1O[C@H](O[C@H]2[C@H](O)[C@@H](O)C(O)O[C@@H]2CO)[C@H](O)[C@@H](O)[C@@H]1O` (mixture of isomers) [maltose], the Log2FoldChange [3] was -0.08927.

`CCCCCCC(=O)NCC(=O)O` [heptanoyl glycine] showed a Log2FoldChange [1] of 0.6041.

For `Cc1c(C)c2c(c(C)c1O)CC[C@@](C)(CCC[C@H](C)CCC[C@H](C)CCCC(C)C)O2` [α-tocopherol], the Log2FoldChange [1] was 1.021 and the Log2FoldChange [2] was -0.454.

`CC(C(=O)N1CCCC1C(=O)[O-])[N+](C)(C)C` (centres unmarked) gave a Log2FoldChange [1] of 0.7225.

With `O=CNc1ccccc1C(=O)O` [N-formylanthranilic acid] the Log2FoldChange [4] was -0.2345.

Compound `CCCCC/C=C\C/C=C\C/C=C\C/C=C\CCCC(=O)O[C@H](CO/C=C\CCCCCCCCCCCCCCCC)COP(=O)(O)OCCN` has a Log2FoldChange [1] of 0.4114 and a Log2FoldChange [2] of -0.1203.

For `CC(C)CC(=O)O[C@H](CC(=O)[O-])C[N+](C)(C)C` [isovalerylcarnitine (C5)], the Log2FoldChange [1] was 0.4854 and the Log2FoldChange [2] was 0.4957.

For `NC(=O)NC1NC(=O)NC1=O` (centres unmarked) [allantoin], the Log2FoldChange [3] was -0.0145 and the Log2FoldChange [2] was 0.1375.

In the case of `CC(=O)C(=O)O` [pyruvate], the Log2FoldChange [4] is reported as -0.2176 and the Log2FoldChange [2] is reported as 0.05658.

For `CC[C@H](C)[C@H](N)C(=O)O` [isoleucine], the Log2FoldChange [2] was 0.09761.

Work on `CC(=O)NCCC[C@H](NC(C)=O)C(=O)O` [N2,N5-diacetylornithine] yielded a Log2FoldChange [1] of 0.3448.

`CCCCCCCC/C=C\CCCCCCCCCCCCCC(=O)N[C@@H](CO[C@@H]1O[C@H](CO)[C@H](O)[C@H](OS(=O)(=O)O)[C@H]1O)[C@H](O)/C=C/CCCCCCCCCCCCC` gave a Log2FoldChange [2] of -0.3959.

With `CCCCCCCC/C=C\CCCCCCCC(=O)OC[C@@H](O)COP(=O)(O)OCC(O)CO` (some centres unmarked) [1-oleoyl-GPG (18:1)*] the Log2FoldChange [1] was 3.034.

With `CC(=O)N[C@@H](CCCNC(N)=O)C(=O)O` [N-acetylcitrulline] the Log2FoldChange [3] was 0.111.

`CC[C@H](C)[C@H](NC(C)=O)C(=O)O` [N-acetylisoleucine] gave a Log2FoldChange [3] of 0.09761 and a Log2FoldChange [2] of 0.3219.

For `NC1CCCNC1=O` (centres unmarked) [3-amino-2-piperidone], the Log2FoldChange [3] was 0.

In the case of `CC/C=C\C/C=C\C/C=C\C/C=C\C/C=C\C/C=C\CCC(=O)O[C@H](COC(=O)CCCCCCCCCCCCCCC)COP(=O)(O)OCCN`, the Log2FoldChange [3] is reported as 0.1375 and the Log2FoldChange [2] is reported as -0.074.

`C[C@@H](CCC(=O)O)CC(=O)O` [3-methyladipate] showed a Log2FoldChange [4] of -1.2863.

`CC(C)(COP(=O)(O)O)[C@@H](O)C(=O)NCCC(=O)NCCS` [phosphopantetheine] was tested, and the Log2FoldChange [2] was 0.3896.

`CCCCCCCC/C=C\CCCCCCCC(=O)OC[C@H](COP(=O)(O)OCCN)OC(=O)CCCCCCC/C=C\CCCCCCCC` [1,2-dioleoyl-GPE (18:1/18:1)] showed a Log2FoldChange [2] of -0.2176.

`CC/C=C\C/C=C\C/C=C\C/C=C\C/C=C\C/C=C\CCC(=O)O[C@H](COC(=O)CCCCCCCCCCCCCCC)COP(=O)([O-])OCC[N+](C)(C)C` gave a Log2FoldChange [3] of 0.111 and a Log2FoldChange [2] of -0.08927.

Compound `C[N+]1(C)C[C@H](O)C[C@H]1C(=O)[O-]` [betonicine] has a Log2FoldChange [1] of 0.2265.

For `NC(=O)CC[C@H](N)C(=O)O` [glutamine], the Log2FoldChange [3] was 0.111 and the Log2FoldChange [2] was 0.09761.

For `CCCCC/C=C\C/C=C\CCCCCCCC(=O)O[C@H](COC(=O)CCCCCCCCCCCCCCC)COP(=O)([O-])OCC[N+](C)(C)C` [1-palmitoyl-2-linoleoyl-GPC (16:0/18:2)], the Log2FoldChange [3] was 0.1763.

With `O=S(=O)(O)O` [sulfate*] the Log2FoldChange [3] was 0.05658.

In the case of `COc1cc(/C=C/C(=O)O)ccc1O` [ferulate], the Log2FoldChange (mouse, in vivo) is reported as -0.1047.

In the case of `O=C(O)c1cccnc1C(=O)O` [quinolinate], the Log2FoldChange [1] is reported as 0.4005.

`CC(=O)NCCCC[C@H](N)C(=O)O` [N6-acetyllysine] was tested, and the Log2FoldChange [3] was 0.05658 and the Log2FoldChange [2] was 0.1375.

With `Cn1cnc2nc(N)[nH]c(=O)c21` [7-methylguanine] the Log2FoldChange [2] was 0.189.

`CC(=O)N[C@@H]1[C@@H](O)[C@H](O)[C@@H](CO)O[C@H]1NC(=O)C[C@H](N)C(=O)O` [N-acetylglucosaminylasparagine] was tested, and the Log2FoldChange [1] was 0.3561 and the Log2FoldChange [2] was 0.3448.

In the case of `CCCCCCCCCCCCCC[C@@H](O)[C@@H](O)[C@@H](N)CO` [phytosphingosine], the Log2FoldChange [2] is reported as 0.275.

With `N[C@@H](CC(O)C(=O)O)C(=O)O` (some centres unmarked) [4-hydroxyglutamate] the Log2FoldChange [3] was 0.

Compound `CC(C(=O)O)c1ccc(O)cc1` (centres unmarked) [2-(4-hydroxyphenyl)propionate] has a Log2FoldChange [1] of 0.3785.

`CCCCC/C=C/C/C=C/CCCCCC(=O)O` [hexadecadienoate (16:2n6)] gave a Log2FoldChange [3] of -0.1361.

With `N[C@@H](Cc1c[nH]cn1)C(=O)O` [histidine] the Log2FoldChange [3] was -0.08927.

`O=C(O)CCCCCCCCCCCCC(=O)O` [tetradecanedioate (C14-DC)] gave a Log2FoldChange [1] of 2.094.

`CC(C)CCC[C@@H](C)[C@H]1CC[C@H]2[C@@H]3CCC4=CC(=O)CC[C@]4(C)[C@H]3CC[C@]12C` [4-cholesten-3-one] showed a Log2FoldChange [1] of 0.3674 and a Log2FoldChange [2] of -0.2176.

With `CC1=NCC[C@@H](C(=O)O)N1` [ectoine] the Log2FoldChange [1] was 0.8156.

`O=C(O)[C@H]1O[C@@H](Oc2ccccc2)[C@H](O)[C@@H](O)[C@@H]1O` [phenol glucuronide] was tested, and the Log2FoldChange (mouse, in vivo) was 0.903.

For `CCCCCCCCCCCCCCC(N)=O` [pentadecanamide (15:0)*], the Log2FoldChange [1] was 0.3448.

`C[N+](C)(C)CCO` [choline] gave a Log2FoldChange [3] of 0.08406.

For `CC/C=C\C/C=C\C/C=C\C/C=C\C/C=C\C/C=C\CCC(=O)NCCO` [docosahexaenoyl ethanolamide], the Log2FoldChange [2] was 0.189.

`CCCCC/C=C\C/C=C\C/C=C\C/C=C\C/C=C\CCC(=O)O` [docosapentaenoate (n6 DPA; 22:5n6)] showed a Log2FoldChange [2] of 0.6508.

`CC(=O)Oc1c[nH]c2ccccc12` [indoleacetate] gave a Log2FoldChange [3] of 0.111.

For `O=C(CO)[C@@H](O)[C@H](O)[C@H](O)[C@H](O)COP(=O)(O)O` [sedoheptulose-7-phosphate], the Log2FoldChange [2] was 0.111.

In the case of `CCCCCCCCCCCCCCCC(=O)OCC(O)COP(=O)(O)OC[C@H](N)C(=O)O` (some centres unmarked) [1-palmitoyl-GPS (16:0)*], the Log2FoldChange [2] is reported as 0.251.

With `CCCCCCCCCCCCCCCC(N)=O` [palmitamide (16:0)] the Log2FoldChange [1] was 0.4854.

For `CCCCCCCC/C=C\CCCCCCCCCCCCCC(=O)OC(CC(=O)[O-])C[N+](C)(C)C` (centres unmarked) [nervonoylcarnitine (C24:1)*], the Log2FoldChange [2] was -0.7612.

`CCCCCCCCCCCCCCCCCCCCCCCC(=O)OCC(O)COP(=O)([O-])OCC[N+](C)(C)C` (centres unmarked) [1-lignoceroyl-GPC (24:0)] gave a Log2FoldChange [1] of 0.4436 and a Log2FoldChange [2] of 0.05658.

`C[N+](C)(C)CCCCC(=O)[O-]` [N,N,N-trimethyl-5-aminovalerate] gave a Log2FoldChange [1] of 1.7866 and a Log2FoldChange [2] of 2.111.

`CCCCCC(=O)O` [caproate (6:0)] was tested, and the Log2FoldChange [1] was 0.263 and the Log2FoldChange [2] was 0.1375.

For `O=C1O[C@H]([C@@H](O)CO)C(OS(=O)(=O)O)=C1O` [ascorbic acid 3-sulfate*], the Log2FoldChange [2] was -0.2863.

Work on `CCCCCCCC/C=C\CCCCCCCC(=O)O[C@H](COC(=O)CCCCCCCCCCCCCCC)COP(=O)(O)OCCN` [1-palmitoyl-2-oleoyl-GPE (16:0/18:1)] yielded a Log2FoldChange [1] of 0.546 and a Log2FoldChange [2] of -0.2863.

`O=C(O)CCC(O)CC(=O)O` (centres unmarked) [3-hydroxyadipate] was tested, and the Log2FoldChange [3] was -0.1361.

In the case of `C[N+](C)(C)CC=O` [betaine aldehyde], the Log2FoldChange [2] is reported as -0.3401.

Work on `CCCCCCCC/C=C\CCCCCCCC(=O)OC[C@@H](O)COP(=O)(O)OC[C@H](N)C(=O)O` [1-oleoyl-GPS (18:1)] yielded a Log2FoldChange [2] of 0.251.

Compound `CC(C)[C@H](NC(=O)CN)C(=O)O` [glycylvaline] (H-Gly-[ξV]-OH) has a Log2FoldChange [2] of 0.4957.

Compound `C[N+]1(C)CCC[C@H]1C(=O)N1CCC[C@H]1C(=O)O` [N,N-dimethyl-pro-pro] has a Log2FoldChange [3] of 0.02857 and a Log2FoldChange [2] of 0.2388.

Compound `O=C(O)Cc1ccc(OS(=O)(=O)O)cc1` [4-hydroxyphenylacetate sulfate] has a Log2FoldChange [3] of 0.1375.

For `O=c1[nH]cnc2c1ncn2[C@@H]1O[C@H](CO)[C@@H](O)[C@H]1O` [inosine], the Log2FoldChange [1] was 1.05.

For `N[C@@H](CCC(=O)N[C@@H](CS)C(=O)O)C(=O)O` [gamma-glutamylcysteine], the Log2FoldChange [2] was 0.275.

`N[C@@H](CCCCNC(=O)CC[C@H](N)C(=O)O)C(=O)O` [gamma-glutamyl-epsilon-lysine] was tested, and the Log2FoldChange [2] was 0.2869.

In the case of `O=C(O)CCCO` [4-hydroxybutyrate (GHB)], the Log2FoldChange (mouse, in vivo) is reported as -0.2515.

For `CCO[C@H]1O[C@H](CO)[C@@H](O)[C@H](O)[C@H]1O` [ethyl alpha-glucopyranoside], the Log2FoldChange [1] was 0.4222.

Compound `OC[C@H]1OC[C@H](O)[C@@H](O)[C@@H]1O` [1,5-anhydroglucitol (1,5-AG)] has a Log2FoldChange [4] of -0.2009 and a Log2FoldChange [2] of -0.152.

Compound `CCCCCCC=CCCCC(=O)O` [5-dodecenoate (12:1n7)] has a Log2FoldChange [4] of -0.2176.

In the case of `CCCC(=O)NCC(=O)O` [butyrylglycine], the Log2FoldChange [1] is reported as 0.7824.

`CCCCCCCCCCCCCCCC(=O)N[C@@H](COP(=O)([O-])OCC[N+](C)(C)C)[C@H](O)CCCCCCCCCCCCCCC` showed a Log2FoldChange [2] of -0.3401.

`CCC=CCC=CCC=CCC=CCC=CCCCCC(=O)O` [heneicosapentaenoate (21:5n3)] was tested, and the Log2FoldChange [4] was -0.8365.

`CC(=O)N[C@@H](CCCNC(=N)N)C(=O)O` [N-acetylarginine] showed a Log2FoldChange [3] of -0.0145 and a Log2FoldChange [2] of 0.08406.
